# The list shows a part of the results.
# Sequences of proteins named here, by UniProt entry; tags and fusion partners are left off. A change or cut given only in a name is not applied to a line headed by its entry.
# UniProt Q9Y2V2: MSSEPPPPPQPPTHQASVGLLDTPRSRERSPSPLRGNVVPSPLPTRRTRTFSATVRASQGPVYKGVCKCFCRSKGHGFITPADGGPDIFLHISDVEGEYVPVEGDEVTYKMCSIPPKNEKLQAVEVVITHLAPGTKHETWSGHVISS
# UniProt Q9P219: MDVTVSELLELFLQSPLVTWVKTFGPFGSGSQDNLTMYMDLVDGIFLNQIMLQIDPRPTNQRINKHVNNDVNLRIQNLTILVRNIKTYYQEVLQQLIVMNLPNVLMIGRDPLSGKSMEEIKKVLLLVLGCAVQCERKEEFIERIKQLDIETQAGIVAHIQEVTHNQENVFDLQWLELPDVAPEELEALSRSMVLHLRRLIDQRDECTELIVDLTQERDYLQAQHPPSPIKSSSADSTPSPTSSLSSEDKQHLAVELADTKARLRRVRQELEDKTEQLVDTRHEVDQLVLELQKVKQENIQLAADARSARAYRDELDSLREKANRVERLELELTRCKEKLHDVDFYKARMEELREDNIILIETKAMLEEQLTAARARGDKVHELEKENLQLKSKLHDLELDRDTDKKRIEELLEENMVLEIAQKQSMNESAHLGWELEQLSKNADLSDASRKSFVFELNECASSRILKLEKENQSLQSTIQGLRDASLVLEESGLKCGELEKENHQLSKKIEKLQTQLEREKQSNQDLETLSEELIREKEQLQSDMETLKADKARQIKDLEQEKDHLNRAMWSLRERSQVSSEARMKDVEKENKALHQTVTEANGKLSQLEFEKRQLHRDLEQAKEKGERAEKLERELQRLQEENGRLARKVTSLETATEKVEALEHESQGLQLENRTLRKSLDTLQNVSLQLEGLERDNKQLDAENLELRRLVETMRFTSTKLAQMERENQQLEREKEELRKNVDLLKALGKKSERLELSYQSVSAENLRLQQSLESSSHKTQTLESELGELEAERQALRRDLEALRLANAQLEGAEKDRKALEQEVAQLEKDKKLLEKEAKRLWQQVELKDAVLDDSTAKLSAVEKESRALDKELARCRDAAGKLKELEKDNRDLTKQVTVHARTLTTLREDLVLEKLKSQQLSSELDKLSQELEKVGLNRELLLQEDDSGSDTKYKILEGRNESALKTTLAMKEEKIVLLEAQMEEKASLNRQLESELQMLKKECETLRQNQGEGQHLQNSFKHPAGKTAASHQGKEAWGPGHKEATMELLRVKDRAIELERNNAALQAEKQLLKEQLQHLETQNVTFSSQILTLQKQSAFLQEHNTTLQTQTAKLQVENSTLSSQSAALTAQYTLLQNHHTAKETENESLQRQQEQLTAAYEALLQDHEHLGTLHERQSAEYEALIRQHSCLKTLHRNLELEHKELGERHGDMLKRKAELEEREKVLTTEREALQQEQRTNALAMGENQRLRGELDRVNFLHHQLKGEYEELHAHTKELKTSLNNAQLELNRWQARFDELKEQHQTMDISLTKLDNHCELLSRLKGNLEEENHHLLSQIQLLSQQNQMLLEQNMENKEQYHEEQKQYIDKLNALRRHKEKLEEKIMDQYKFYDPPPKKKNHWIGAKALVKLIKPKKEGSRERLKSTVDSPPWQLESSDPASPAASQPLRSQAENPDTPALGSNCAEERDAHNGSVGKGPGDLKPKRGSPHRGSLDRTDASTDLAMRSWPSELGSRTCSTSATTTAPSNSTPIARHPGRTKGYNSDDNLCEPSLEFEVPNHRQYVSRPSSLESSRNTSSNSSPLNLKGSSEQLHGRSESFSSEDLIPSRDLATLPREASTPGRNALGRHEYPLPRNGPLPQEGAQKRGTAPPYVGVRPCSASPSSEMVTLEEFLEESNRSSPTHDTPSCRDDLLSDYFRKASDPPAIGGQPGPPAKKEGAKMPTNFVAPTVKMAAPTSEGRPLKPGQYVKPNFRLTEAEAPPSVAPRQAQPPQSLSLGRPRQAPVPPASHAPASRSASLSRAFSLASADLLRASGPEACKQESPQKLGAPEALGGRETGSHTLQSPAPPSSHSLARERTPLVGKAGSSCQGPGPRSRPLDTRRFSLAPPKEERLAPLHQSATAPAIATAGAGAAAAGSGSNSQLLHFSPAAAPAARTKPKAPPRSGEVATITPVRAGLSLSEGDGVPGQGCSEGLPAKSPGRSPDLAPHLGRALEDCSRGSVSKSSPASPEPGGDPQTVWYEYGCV
# UniProt Q13191, whole entry, looked up: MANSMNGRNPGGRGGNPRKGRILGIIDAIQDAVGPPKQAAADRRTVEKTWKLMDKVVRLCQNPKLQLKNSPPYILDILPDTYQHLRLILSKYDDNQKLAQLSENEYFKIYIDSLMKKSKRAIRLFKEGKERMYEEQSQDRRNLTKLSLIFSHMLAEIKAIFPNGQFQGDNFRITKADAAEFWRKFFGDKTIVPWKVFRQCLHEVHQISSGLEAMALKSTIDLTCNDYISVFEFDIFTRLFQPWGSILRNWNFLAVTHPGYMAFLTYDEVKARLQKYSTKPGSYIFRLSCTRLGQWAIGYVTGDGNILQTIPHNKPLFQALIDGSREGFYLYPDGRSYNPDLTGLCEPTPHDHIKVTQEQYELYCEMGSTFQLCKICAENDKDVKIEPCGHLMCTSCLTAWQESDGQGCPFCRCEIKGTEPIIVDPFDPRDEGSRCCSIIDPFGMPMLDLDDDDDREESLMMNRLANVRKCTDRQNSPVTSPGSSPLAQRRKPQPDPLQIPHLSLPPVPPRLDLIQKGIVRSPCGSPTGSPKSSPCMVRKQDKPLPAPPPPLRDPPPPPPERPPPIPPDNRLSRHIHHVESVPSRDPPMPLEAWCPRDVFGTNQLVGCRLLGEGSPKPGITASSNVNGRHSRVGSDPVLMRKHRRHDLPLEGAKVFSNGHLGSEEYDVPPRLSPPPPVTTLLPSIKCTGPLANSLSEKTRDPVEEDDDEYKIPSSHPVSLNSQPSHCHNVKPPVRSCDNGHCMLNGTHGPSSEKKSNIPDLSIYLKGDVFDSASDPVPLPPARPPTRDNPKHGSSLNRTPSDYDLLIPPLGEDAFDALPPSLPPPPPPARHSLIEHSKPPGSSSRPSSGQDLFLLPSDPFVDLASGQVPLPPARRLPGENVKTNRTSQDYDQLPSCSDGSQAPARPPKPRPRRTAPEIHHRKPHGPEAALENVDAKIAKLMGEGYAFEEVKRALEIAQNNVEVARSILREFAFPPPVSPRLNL
# UniProt O75081: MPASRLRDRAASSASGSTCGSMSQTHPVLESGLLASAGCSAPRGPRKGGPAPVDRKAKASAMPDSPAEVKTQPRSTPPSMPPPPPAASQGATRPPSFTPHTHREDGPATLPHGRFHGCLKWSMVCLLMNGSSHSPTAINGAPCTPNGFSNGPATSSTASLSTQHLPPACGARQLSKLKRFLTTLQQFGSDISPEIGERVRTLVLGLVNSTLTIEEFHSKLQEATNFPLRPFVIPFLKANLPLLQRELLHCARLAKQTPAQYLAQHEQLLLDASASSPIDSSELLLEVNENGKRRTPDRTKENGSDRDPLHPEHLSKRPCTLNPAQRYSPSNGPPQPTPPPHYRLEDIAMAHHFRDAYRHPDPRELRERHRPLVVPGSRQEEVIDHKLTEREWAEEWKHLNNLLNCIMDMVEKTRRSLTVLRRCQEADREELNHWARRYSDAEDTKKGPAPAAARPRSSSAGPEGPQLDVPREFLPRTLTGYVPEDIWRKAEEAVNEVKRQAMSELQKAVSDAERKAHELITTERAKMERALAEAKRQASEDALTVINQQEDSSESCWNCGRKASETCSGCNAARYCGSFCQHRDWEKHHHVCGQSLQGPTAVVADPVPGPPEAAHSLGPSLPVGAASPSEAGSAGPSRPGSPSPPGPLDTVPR
# UniProt P48643, whole entry, looked up: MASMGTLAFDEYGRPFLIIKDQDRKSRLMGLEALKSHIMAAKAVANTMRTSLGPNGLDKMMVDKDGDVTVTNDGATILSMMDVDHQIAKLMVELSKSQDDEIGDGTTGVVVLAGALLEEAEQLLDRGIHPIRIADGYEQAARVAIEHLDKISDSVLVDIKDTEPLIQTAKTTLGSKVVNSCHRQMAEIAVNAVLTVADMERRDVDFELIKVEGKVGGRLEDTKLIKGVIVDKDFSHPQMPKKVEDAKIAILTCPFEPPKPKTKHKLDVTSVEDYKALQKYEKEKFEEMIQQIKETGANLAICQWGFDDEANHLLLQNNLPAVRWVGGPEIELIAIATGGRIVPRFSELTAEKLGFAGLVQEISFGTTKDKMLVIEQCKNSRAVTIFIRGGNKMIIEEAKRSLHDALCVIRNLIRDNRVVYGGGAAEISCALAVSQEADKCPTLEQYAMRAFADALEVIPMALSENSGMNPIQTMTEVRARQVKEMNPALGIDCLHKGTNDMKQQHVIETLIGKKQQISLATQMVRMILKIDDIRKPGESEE
# UniProt Q8ND76: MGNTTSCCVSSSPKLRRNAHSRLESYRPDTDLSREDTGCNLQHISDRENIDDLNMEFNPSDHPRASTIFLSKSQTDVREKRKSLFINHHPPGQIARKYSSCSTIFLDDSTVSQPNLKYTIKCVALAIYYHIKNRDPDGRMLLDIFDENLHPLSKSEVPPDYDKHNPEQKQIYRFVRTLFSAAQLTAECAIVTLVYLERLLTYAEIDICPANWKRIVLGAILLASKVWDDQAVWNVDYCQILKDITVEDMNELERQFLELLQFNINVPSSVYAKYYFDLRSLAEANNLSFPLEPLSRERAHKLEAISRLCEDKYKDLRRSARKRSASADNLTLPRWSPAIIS
# UniProt O95810: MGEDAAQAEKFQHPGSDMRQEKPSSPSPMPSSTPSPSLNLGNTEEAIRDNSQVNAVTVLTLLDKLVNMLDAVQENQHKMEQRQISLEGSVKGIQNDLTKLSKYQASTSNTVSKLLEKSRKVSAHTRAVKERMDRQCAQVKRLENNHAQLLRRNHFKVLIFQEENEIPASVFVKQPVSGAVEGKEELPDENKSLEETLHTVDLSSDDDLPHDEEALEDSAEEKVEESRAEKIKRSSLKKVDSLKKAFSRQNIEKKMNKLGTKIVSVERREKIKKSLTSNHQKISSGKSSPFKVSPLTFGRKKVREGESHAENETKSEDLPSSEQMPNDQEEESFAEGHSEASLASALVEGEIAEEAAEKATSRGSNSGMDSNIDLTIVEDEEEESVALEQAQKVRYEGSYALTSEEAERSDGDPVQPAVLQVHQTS
# UniProt Q96F63: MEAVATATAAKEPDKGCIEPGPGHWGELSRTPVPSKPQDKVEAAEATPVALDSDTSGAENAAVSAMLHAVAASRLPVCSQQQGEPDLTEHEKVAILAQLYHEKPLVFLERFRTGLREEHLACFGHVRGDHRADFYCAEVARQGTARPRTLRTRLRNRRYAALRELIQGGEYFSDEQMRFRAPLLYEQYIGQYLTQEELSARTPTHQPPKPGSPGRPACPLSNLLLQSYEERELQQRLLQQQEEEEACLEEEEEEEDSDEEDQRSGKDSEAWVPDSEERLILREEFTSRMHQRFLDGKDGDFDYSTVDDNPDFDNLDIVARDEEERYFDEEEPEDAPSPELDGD
# UniProt P49368: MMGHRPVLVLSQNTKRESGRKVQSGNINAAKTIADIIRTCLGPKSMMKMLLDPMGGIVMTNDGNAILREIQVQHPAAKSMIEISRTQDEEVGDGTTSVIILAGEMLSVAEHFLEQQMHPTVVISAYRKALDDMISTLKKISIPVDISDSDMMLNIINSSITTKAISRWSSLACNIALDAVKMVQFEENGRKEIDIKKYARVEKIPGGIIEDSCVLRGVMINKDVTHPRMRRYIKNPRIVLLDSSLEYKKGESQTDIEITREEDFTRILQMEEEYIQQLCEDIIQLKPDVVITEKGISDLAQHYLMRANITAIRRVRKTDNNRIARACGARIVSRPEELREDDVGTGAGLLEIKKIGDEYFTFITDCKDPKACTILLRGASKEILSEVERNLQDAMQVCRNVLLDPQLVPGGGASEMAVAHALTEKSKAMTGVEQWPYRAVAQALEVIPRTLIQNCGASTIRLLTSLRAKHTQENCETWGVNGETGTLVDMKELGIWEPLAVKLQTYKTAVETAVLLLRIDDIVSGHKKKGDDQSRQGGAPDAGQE
# UniProt Q4VC31: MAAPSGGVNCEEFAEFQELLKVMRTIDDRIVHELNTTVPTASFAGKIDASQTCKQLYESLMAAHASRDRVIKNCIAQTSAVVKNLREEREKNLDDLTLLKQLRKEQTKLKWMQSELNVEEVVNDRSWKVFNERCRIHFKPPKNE
# UniProt P14635, whole entry, looked up: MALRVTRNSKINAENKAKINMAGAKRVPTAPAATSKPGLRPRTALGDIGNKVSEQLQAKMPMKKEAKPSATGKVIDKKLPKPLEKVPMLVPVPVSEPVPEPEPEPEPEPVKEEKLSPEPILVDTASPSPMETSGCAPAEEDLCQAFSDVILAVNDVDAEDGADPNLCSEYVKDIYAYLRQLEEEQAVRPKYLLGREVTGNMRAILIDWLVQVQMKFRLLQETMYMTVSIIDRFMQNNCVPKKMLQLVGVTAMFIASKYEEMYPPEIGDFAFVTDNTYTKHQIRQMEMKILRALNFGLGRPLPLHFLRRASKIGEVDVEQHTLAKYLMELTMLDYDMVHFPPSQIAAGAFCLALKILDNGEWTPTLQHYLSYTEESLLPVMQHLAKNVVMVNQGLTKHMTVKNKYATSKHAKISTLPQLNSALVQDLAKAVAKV
# Assays:
# Assay in all cases: log2 fold change, soluble protein after heating vs DMSO (PISA); higher = thermal stabilisation; K562 lysate, 10 uM; active = over 0.2 and 3.5 SD of the protein, either way, in both replicates (recomputed)
# lapatinib = compound: CS(=O)(=O)CCNCc1ccc(-c2ccc3ncnc(Nc4ccc(OCc5cccc(F)c5)c(Cl)c4)c3c2)o1 [lapatinib]
# Summary of the method: (§1)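 Pellets of K562 cells were dounce-homogenised in PBS pH 7.4 with 1 mM MgCl2, and the crude extract was held at 1 mg/mL protein for a 30 min treatment with 10 μM compound. Aliquots were heated for 3 min over 48°C-58°C and pooled before NP-40 was added to 0.5% at 4°C. The supernatant from 21,000xg for 90 min was quantified by TMTpro 16plex LC-MS/MS with channel sums equalised. Values are reported from duplicates as log-two fold change in thermal stability relative to solvent controls.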
# pictilisib = compound: CS(=O)(=O)N1CCN(Cc2cc3nc(-c4cccc5[nH]ncc45)nc(N4CCOCC4)c3s2)CC1 [pictilisib]
# Summary of the method: as §1
# crizotinib = compound: C[C@@H](Oc1cc(-c2cnn(C3CCNCC3)c2)cnc1N)c1c(Cl)ccc(F)c1Cl [crizotinib]
# Summary of the method: as §1
# [1] = compound: C[C@H](C1=CC=C(C=C1)C(=O)NC2=C3C=CNC3=NC=C2)N
# Summary of the method: as §1
# duvelisib = compound: C[C@H](Nc1ncnc2nc[nH]c12)c1cc2cccc(Cl)c2c(=O)n1-c1ccccc1 [duvelisib]
# Summary of the method: as §1
# gandotinib = compound: Cc1cc(Nc2cc(CN3CCOCC3)c3nc(C)c(Cc4ccc(Cl)cc4F)n3n2)n[nH]1 [gandotinib]
# Summary of the method: as §1
# tozasertib = compound: Cc1cc(Nc2cc(N3CCN(C)CC3)nc(Sc3ccc(NC(=O)C4CC4)cc3)n2)n[nH]1 [tozasertib]
# Summary of the method: as §1
# doramapimod = compound: Cc1ccc(-n2nc(C(C)(C)C)cc2NC(=O)Nc2ccc(OCCN3CCOCC3)c3ccccc23)cc1 [doramapimod]
# Summary of the method: as §1
# bafetinib = compound: Cc1ccc(NC(=O)c2ccc(CN3CC[C@H](N(C)C)C3)c(C(F)(F)F)c2)cc1Nc1nccc(-c2cncnc2)n1 [bafetinib]
# Summary of the method: as §1
# [2] = compound: Cc1cccc(CC(=O)N2CCc3c2ccc(-c2cn(C)c4ncnc(N)c24)c3F)n1
# Summary of the method: as §1
Target,log2 fold change (lapatinib),log2 fold change (pictilisib),log2 fold change (crizotinib),log2 fold change [1],log2 fold change (duvelisib),log2 fold change (gandotinib),log2 fold change (tozasertib),log2 fold change (doramapimod),log2 fold change (bafetinib),log2 fold change [2]
CCNH (UniProt P51946),inactive: 0.005,inactive: -0.012,inactive: 0.012,inactive: 0.026,inactive: 0.072,inactive: -0.002,inactive: 0.013,inactive: 0.037,inactive: -0.022,inactive: -0.023
CARHSP1 (UniProt Q9Y2V2),inactive: -0.014,inactive: -0.08,inactive: 0.011,inactive: -0.053,inactive: 0.003,inactive: 0.047,inactive: 0.003,inactive: -0.012,inactive: -0.033,inactive: 0.019
CCNL2 (UniProt Q96S94),inactive: -0.013,inactive: -0.033,inactive: 0.004,inactive: 0.013,inactive: 0.061,inactive: -0.072,inactive: 0.208,inactive: -0.041,inactive: -0.148,inactive: -0.024
CCT8 (UniProt P50990),inactive: -0.036,inactive: 0.014,inactive: 0.018,inactive: -0.008,inactive: -0.003,inactive: 0,inactive: -0.006,inactive: -0.011,inactive: 0.006,inactive: -0.006
CBL (UniProt P22681),inactive: -0.017,inactive: -0.019,inactive: 0.026,inactive: 0.031,inactive: -0.03,inactive: 0.06,inactive: -0.035,inactive: -0.046,inactive: -0.026,inactive: -0.065
CCDC88C (UniProt Q9P219),inactive: 0.033,inactive: 0.153,inactive: 0.023,inactive: -0.117,inactive: 0.042,inactive: 0.034,inactive: 0.232,inactive: -0.032,inactive: -0.064,inactive: 0.034
CBLB (UniProt Q13191),inactive: -0.023,inactive: 0.014,inactive: -0.071,inactive: -0.113,inactive: -0.058,inactive: 0.087,inactive: -0.18,inactive: 0.01,inactive: 0.055,inactive: 0.029
CASTOR2 (UniProt A6NHX0),inactive: -0.033,inactive: -0.028,inactive: -0.013,inactive: -0.026,inactive: 0.011,inactive: 0.026,inactive: -0.065,inactive: -0.032,inactive: -0.077,inactive: -0.037
CBFA2T3 (UniProt O75081),inactive: 0.041,inactive: -0.038,inactive: 0.013,inactive: 0.017,inactive: 0.006,inactive: -0.001,inactive: -0.014,inactive: 0.007,inactive: -0.007,inactive: 0.05
CBFB isoform 2 (UniProt Q13951),inactive: -0.014,inactive: 0.003,inactive: 0.098,inactive: -0.112,inactive: -0.002,inactive: 0.082,inactive: 0.062,inactive: 0.012,inactive: 0.051,inactive: 0.094
CBX5 (UniProt P45973),inactive: 0.06,inactive: 0.024,inactive: -0.023,inactive: -0.187,inactive: -0.036,inactive: 0.077,inactive: 0.006,inactive: 0.006,inactive: -0.001,inactive: 0.064
CCT5 (UniProt P48643),inactive: -0.005,inactive: 0.009,inactive: 0.018,inactive: -0.019,inactive: 0.02,inactive: -0.011,inactive: 0.036,inactive: 0.026,inactive: 0.026,inactive: 0.003
CCDC28B (UniProt Q9BUN5),inactive: 0.138,inactive: 0.101,inactive: 0.147,inactive: -0.141,inactive: 0.044,inactive: 0.243,inactive: -0.091,inactive: -0.066,inactive: -0.162,inactive: 0.091
CASP10 isoform 4 (UniProt Q92851),inactive: -0.02,inactive: 0.022,inactive: -0.025,inactive: -0.029,inactive: -0.017,inactive: -0.023,inactive: -0.038,inactive: 0.019,inactive: 0.005,inactive: 0.02
CCAR1 (UniProt Q8IX12),inactive: 0.005,inactive: -0.027,inactive: 0.022,inactive: -0.136,inactive: -0.03,inactive: 0.02,inactive: 0.014,inactive: -0.011,inactive: -0.019,inactive: 0.01
CCNY (UniProt Q8ND76),inactive: -0.061,inactive: -0.044,inactive: -0.035,inactive: -0.094,inactive: -0.057,inactive: 0.081,inactive: 0.056,inactive: 0.033,inactive: -0.073,inactive: 0.054
CCDC115 (UniProt Q96NT0),inactive: 0.052,inactive: 0.014,inactive: -0.013,inactive: -0.018,inactive: -0.039,inactive: 0.014,inactive: -0.022,inactive: 0.016,inactive: 0.014,inactive: 0.005
CAVIN2 (UniProt O95810),inactive: -0.028,inactive: -0.006,inactive: 0.022,inactive: -0.004,inactive: 0.022,inactive: 0.029,inactive: -0.003,inactive: 0.025,inactive: -0.001,inactive: 0.016
CBR4 (UniProt Q8N4T8),inactive: 0.002,inactive: -0.002,inactive: 0.013,inactive: 0.271,inactive: 0.013,inactive: -0.068,inactive: -0.089,inactive: -0.003,inactive: 0.003,inactive: -0.118
CCDC97 (UniProt Q96F63),inactive: -0.013,inactive: -0.066,inactive: 0.04,inactive: 0.109,inactive: -0.042,inactive: -0.068,inactive: 0.113,inactive: -0.005,inactive: 0.036,inactive: -0.074
CCT3 (UniProt P49368),inactive: -0.015,inactive: 0.002,inactive: 0.012,inactive: 0.039,inactive: 0.057,inactive: -0.013,inactive: -0.004,inactive: 0.02,inactive: 0.03,inactive: -0.021
CARS2 (UniProt Q9HA77),inactive: -0.09,inactive: -0.074,inactive: -0.023,inactive: 0.013,inactive: -0.033,inactive: -0.022,inactive: 0.053,inactive: 0.005,inactive: -0.047,inactive: -0.002
CCNC (UniProt P24863),inactive: -0.108,inactive: 0.036,inactive: -0.037,inactive: 0.075,inactive: 0.009,inactive: -0.104,inactive: -0.025,active: 0.332,inactive: -0.123,inactive: 0.015
CCDC86 (UniProt Q9H6F5),inactive: 0.001,inactive: -0.033,inactive: 0,inactive: -0.055,inactive: 0.004,inactive: 0.02,inactive: -0.028,inactive: -0.008,inactive: -0.012,inactive: 0.062
CCDC58 (UniProt Q4VC31),inactive: 0.015,inactive: -0.038,inactive: 0.103,inactive: 0.108,inactive: 0.022,inactive: -0.064,inactive: 0.009,inactive: -0.042,inactive: 0.338,inactive: -0.14
CASP2 (UniProt P42575),inactive: -0.001,inactive: 0.008,inactive: 0.045,inactive: -0.066,inactive: 0.004,inactive: 0.055,inactive: 0.007,inactive: -0.004,inactive: 0.029,inactive: 0.046
CCT6A (UniProt P40227),inactive: -0.01,inactive: 0.008,inactive: 0.026,inactive: 0.009,inactive: -0.004,inactive: -0.018,inactive: -0.012,inactive: -0.013,inactive: 0.013,inactive: -0.028
CCNB1 (UniProt P14635),inactive: -0.029,inactive: -0.01,inactive: -0.024,inactive: -0.019,inactive: 0.033,inactive: -0.078,inactive: 0.005,inactive: 0.03,inactive: -0.004,inactive: 0.091

# Single records, as listed above. Order of values: log2 fold change (lapatinib)	log2 fold change (pictilisib)	log2 fold change (crizotinib)	log2 fold change [1]	log2 fold change (duvelisib)	log2 fold change (gandotinib)	log2 fold change (tozasertib)	log2 fold change (doramapimod)	log2 fold change (bafetinib)	log2 fold change [2]
# CCNH (UniProt P51946) in the list: inactive: 0.005	inactive: -0.012	inactive: 0.012	inactive: 0.026	inactive: 0.072	inactive: -0.002	inactive: 0.013	inactive: 0.037	inactive: -0.022	inactive: -0.023
# CBFB isoform 2 (UniProt Q13951) in the list: inactive: -0.014	inactive: 0.003	inactive: 0.098	inactive: -0.112	inactive: -0.002	inactive: 0.082	inactive: 0.062	inactive: 0.012	inactive: 0.051	inactive: 0.094
